The target of assay [1] is calcium channel, voltage-dependent, β3-subunit (rat, untagged, β3-pCMV) (Rattus norvegicus) (UniProt P54287). The assay is described as follows: co-IP; CHO cells co-transfected with CaV1.3 (GFP fusion or untagged) and β3-subunits; lysate in 1% Nonidet-P40, 0.5% deoxycholate, 150 mM NaCl; IP with anti-β3 antibody, blot for CaV1.3, or IP of CaV1.3, blot for β3.
The target in assay [2] is T1, bestrophin-1-GFP fusion construct (hBest-pEGFP-N1) (human) (UniProt O76090).
T1 sequence: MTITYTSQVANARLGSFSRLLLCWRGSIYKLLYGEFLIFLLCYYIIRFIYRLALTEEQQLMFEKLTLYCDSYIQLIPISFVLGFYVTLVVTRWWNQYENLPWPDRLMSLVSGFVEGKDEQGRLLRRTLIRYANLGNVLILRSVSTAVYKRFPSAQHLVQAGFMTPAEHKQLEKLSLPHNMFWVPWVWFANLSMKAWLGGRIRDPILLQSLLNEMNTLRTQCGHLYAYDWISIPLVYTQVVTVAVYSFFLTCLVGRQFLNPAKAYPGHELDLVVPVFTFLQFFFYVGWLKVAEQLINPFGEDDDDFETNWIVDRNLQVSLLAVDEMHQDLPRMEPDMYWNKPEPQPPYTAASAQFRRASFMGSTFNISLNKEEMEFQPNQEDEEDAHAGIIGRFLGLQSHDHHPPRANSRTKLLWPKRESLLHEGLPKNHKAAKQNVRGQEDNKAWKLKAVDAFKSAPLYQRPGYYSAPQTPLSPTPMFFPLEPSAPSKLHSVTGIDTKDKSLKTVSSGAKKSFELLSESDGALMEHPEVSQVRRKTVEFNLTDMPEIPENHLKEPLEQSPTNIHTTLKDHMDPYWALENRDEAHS
Briefly: co-IP; CHO, COS-7 and HEK-293 cells co-transfected with bestrophin-1-GFP and β3-subunits, or with β3-subunits and GFP; IP with anti-GFP antibodies, blots anti-β3 and anti-GFP.

Sequences of proteins named here, by UniProt entry; tags and fusion partners are left off. A change or cut given only in a name is not applied to a line headed by its entry. A line that says so, or that is headed by a name, gives the form on record, which may keep a tag or linker.
calcium channel, voltage-dependent, L-type, α1D subunit CaV1.3 (human, untagged) (Q01668-2, form named): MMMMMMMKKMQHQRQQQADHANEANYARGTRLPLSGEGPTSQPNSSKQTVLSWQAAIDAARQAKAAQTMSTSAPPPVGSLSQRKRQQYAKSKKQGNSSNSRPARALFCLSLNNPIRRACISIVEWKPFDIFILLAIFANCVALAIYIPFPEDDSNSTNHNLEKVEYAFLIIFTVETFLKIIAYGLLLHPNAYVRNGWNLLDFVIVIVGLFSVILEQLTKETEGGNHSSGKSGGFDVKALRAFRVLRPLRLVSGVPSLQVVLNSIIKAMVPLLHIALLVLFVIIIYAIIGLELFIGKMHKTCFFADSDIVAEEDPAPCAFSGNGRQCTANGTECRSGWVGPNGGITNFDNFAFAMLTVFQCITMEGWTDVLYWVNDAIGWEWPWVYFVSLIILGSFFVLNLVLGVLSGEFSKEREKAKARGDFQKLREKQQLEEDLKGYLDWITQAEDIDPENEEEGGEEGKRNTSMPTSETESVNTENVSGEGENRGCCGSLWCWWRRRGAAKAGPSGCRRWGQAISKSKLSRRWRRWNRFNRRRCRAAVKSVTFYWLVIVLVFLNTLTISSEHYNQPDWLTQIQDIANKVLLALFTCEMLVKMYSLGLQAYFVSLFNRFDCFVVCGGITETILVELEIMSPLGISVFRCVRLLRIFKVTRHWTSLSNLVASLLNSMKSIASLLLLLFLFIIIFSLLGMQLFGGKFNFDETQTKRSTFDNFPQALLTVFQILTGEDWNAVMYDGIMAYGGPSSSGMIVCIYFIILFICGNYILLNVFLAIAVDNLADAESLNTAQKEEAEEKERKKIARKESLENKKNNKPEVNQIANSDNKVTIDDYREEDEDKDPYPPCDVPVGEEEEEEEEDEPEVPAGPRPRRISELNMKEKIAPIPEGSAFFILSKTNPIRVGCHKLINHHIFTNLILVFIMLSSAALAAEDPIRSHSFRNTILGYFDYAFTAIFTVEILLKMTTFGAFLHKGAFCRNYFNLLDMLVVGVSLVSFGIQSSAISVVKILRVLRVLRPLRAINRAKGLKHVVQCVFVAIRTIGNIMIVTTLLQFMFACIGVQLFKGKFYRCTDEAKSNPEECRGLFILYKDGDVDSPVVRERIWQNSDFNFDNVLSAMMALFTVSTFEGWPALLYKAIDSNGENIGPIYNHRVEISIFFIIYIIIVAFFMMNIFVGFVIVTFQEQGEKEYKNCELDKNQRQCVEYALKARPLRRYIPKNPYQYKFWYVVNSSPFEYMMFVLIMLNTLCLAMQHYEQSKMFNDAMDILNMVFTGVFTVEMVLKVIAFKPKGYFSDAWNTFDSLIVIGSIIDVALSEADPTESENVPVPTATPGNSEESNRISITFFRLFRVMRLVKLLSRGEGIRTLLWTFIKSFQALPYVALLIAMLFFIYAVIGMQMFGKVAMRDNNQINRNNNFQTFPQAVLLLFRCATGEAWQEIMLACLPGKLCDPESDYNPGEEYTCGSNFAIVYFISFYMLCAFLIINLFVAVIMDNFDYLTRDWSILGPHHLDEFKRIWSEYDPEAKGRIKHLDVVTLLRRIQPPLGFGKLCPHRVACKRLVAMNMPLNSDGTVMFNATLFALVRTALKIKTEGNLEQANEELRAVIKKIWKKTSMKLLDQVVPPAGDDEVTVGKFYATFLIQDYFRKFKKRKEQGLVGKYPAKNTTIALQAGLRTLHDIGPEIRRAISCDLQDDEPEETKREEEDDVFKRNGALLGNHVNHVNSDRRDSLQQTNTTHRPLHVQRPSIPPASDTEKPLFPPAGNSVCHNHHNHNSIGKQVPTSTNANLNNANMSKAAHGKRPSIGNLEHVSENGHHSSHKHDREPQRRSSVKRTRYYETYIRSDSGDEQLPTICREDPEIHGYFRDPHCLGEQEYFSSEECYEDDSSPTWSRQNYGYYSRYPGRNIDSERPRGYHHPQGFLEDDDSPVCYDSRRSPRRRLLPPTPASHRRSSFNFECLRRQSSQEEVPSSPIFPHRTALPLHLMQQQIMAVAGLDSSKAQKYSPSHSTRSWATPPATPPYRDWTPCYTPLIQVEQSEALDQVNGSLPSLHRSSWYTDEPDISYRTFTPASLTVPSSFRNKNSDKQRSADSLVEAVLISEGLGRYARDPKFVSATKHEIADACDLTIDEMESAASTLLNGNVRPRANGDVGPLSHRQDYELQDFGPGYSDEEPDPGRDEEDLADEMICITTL

For assay [3], the target named is calcium channel, voltage-dependent, L-type, α1D subunit CaV1.3 (human, untagged) (human) (UniProt Q01668). The assay is described as follows: co-IP; CHO cells co-transfected with CaV1.3 (GFP fusion or untagged) and β3-subunits; lysate in 1% Nonidet-P40, 0.5% deoxycholate, 150 mM NaCl; IP with anti-β3 antibody, blot for CaV1.3, or IP of CaV1.3, blot for β3.

Results are given in words; binding and its absence hold for the method and conditions named. Binding seen in cells or lysates may run through a third protein. Some entries that bind do so weakly or less than the wild type. For part of these data: Where a sequence is shown, tags or fusion partners need not be part of it.

On to “CaV1.3-GFP fusion construct (human α1D subunit CaV1.3, eGFP-tagged) (from UniProt Q01668-2 1-2181)”, for which the binding result in assay [1] is listed as “binds”.
With “calcium channel, voltage-dependent, β3-subunit (rat, untagged, β3-pCMV) (from UniProt P54287 1-484)”, the binding result in assay [2] and in assay [3] was “binds” in each case.

Source of the values: publication PMC3084833.
